In the supplement of paper PMC8728848:
This is one part of the list.

Tests used:
Assay in all cases: glycan array binding signal (z-score within array); higher = stronger binding
Conditions in all cases: glycan notation: IUPAC condensed, linker removed
[1] = biological target: GalNAc(b1-3)Gal(a1-4)Gal(b1-4)GlcNAc
Procedure, shortened: (§1)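 The binding signal is a Z-score computed within each array. Data were drawn from 3228 arrays in the Consortium for Functional Glycomics database, restricted to those with a known protein sequence. Scores were averaged over arrays of the same protein sequence at different concentrations or buffers, and over linkers, and negative values can be taken as non-binding.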

[2] = biological target: GalNAc(b1-3)Gal(a1-4)Gal(b1-4)GlcNAc(b1-3)Gal(b1-4)Glc
Procedure, shortened: as §1

[3] = biological target: GalNAc(b1-3)Gal(a1-6)Gal(b1-4)Glc
Procedure, shortened: as §1

GalNAc(b1-3)GalNAc = biological target: GalNAc(b1-3)GalNAc
Procedure, shortened: as §1

GalNAc(b1-4)GlcNAc = biological target: GalNAc(b1-4)GlcNAc
Procedure, shortened: as §1

[4] = biological target: GalNAc(b1-4)GlcNAc(b1-2)Man(a1-3)[GalNAc(b1-4)GlcNAc(b1-2)Man(a1-6)]Man(b1-4)GlcNAc(b1-4)GlcNAc
Procedure, shortened: as §1

Glc(a1-4)Glc = biological target: Glc(a1-4)Glc
Procedure, shortened: as §1

Glc(a1-6)Glc(a1-6)Glc = biological target: Glc(a1-6)Glc(a1-6)Glc
Procedure, shortened: as §1

Glc(b1-4)Glc = biological target: Glc(b1-4)Glc
Procedure, shortened: as §1

Glc(b1-6)Glc = biological target: Glc(b1-6)Glc
Procedure, shortened: as §1

GlcA(b1-3)Gal = biological target: GlcA(b1-3)Gal
Procedure, shortened: as §1

GlcA(b1-3)GlcNAc = biological target: GlcA(b1-3)GlcNAc
Procedure, shortened: as §1

GlcA(b1-6)Gal = biological target: GlcA(b1-6)Gal
Procedure, shortened: as §1

[5] = biological target: GlcNAc(a1-3)Gal(b1-4)GlcNAc
Procedure, shortened: as §1

[6] = biological target: GlcNAc(a1-4)Gal(b1-3)GlcNAc
Procedure, shortened: as §1

[7] = biological target: GlcNAc(a1-4)Gal(b1-4)GalNAc
Procedure, shortened: as §1

[8] = biological target: GlcNAc(a1-4)Gal(b1-4)GlcNAc
Procedure, shortened: as §1

[9] = biological target: GlcNAc(a1-4)Gal(b1-4)GlcNAc(b1-3)Gal(b1-4)Glc
Procedure, shortened: as §1

[10] = biological target: GlcNAc(a1-4)Gal(b1-4)GlcNAc(b1-3)Gal(b1-4)GlcNAc
Procedure, shortened: as §1

[11] = biological target: GlcNAc(a1-4)Gal(b1-4)GlcNAc(b1-3)Gal(b1-4)GlcNAc(b1-3)Gal(b1-4)GlcNAc
Procedure, shortened: as §1

[12] = biological target: GlcNAc(a1-4)Gal(b1-4)GlcNAc(b1-3)Gal(b1-4)[Fuc(a1-3)]GlcNAc(b1-3)Gal(b1-4)[Fuc(a1-3)]GlcNAc
Procedure, shortened: as §1

[13] = biological target: GlcNAc(a1-6)Gal(b1-4)GlcNAc
Procedure, shortened: as §1

[14] = biological target: GlcNAc(b1-2)Gal(b1-3)GalNAc
Procedure, shortened: as §1

[15] = biological target: GlcNAc(b1-2)Man(a1-3)[GlcNAc(b1-2)Man(a1-6)]Man(b1-4)GlcNAc(b1-4)GlcNAc
Procedure, shortened: as §1

[16] = biological target: GlcNAc(b1-2)Man(a1-3)[GlcNAc(b1-2)Man(a1-6)]Man(b1-4)GlcNAc(b1-4)[Fuc(a1-6)]GlcNAc
Procedure, shortened: as §1

[17] = biological target: GlcNAc(b1-2)[GlcNAc(b1-4)]Man(a1-3)[GlcNAc(b1-2)Man(a1-6)]Man(b1-4)GlcNAc(b1-4)GlcNAc
Procedure, shortened: as §1

GlcNAc(b1-3)Gal = biological target: GlcNAc(b1-3)Gal
Procedure, shortened: as §1

[18] = biological target: GlcNAc(b1-3)Gal(b1-3)GalNAc
Procedure, shortened: as §1

GlcNAc(b1-3)Gal(b1-4)Glc = biological target: GlcNAc(b1-3)Gal(b1-4)Glc
Procedure, shortened: as §1

[19] = biological target: GlcNAc(b1-3)Gal(b1-4)GlcNAc
Procedure, shortened: as §1

[20] = biological target: GlcNAc(b1-3)Gal(b1-4)GlcNAc(b1-3)Gal(b1-4)GlcNAc
Procedure, shortened: as §1

GlcNAc(b1-3)GalNAc = biological target: GlcNAc(b1-3)GalNAc
Procedure, shortened: as §1

GlcNAc(b1-3)Man = biological target: GlcNAc(b1-3)Man
Procedure, shortened: as §1

[21] = biological target: GlcNAc(b1-3)[GlcNAc(b1-4)][GlcNAc(b1-6)]GlcNAc
Procedure, shortened: as §1

[22] = biological target: GlcNAc(b1-3)[GlcNAc(b1-6)]Gal(b1-4)GlcNAc
Procedure, shortened: as §1

[23] = biological target: GlcNAc(b1-3)[GlcNAc(b1-6)]GalNAc
Procedure, shortened: as §1

[24] = biological target: GlcNAc(b1-4)Gal(b1-4)GlcNAc
Procedure, shortened: as §1

B1: BSR4 (Toxoplasma gondii), Q95NL6 (protein)
chain: MVMMGSMQQRRGGLRSNARQLLAVCMSGVVFFSSGQAVADNLLEGLLHRTLQQQVEVTSRLTVAGSDAKCDFFTPATQDSPPVSGSLTLSKGRMTATFECSATQALSISTIPTNIEQNVCDPKKTTNGTVCQFGANGSAGTEVTLKDLLETDRIVNWKVNEQREESNKSQKWSLELHNEDLPLTDKAFVVGCQATSAARGTESGKTAACKLTVNVEARASSLAENNVVTCAYGKGSNPNPVEVEMSTEKNTLTINCGSDGSLQPTTYAEEYCVADSKDVNRCSTTRFVEIFPKFLKSWWVTETQKRTSATLTIPQTDLPEADQQFLVGCVPKKTAPEDPKKDKESGTETGAPTSCTVLVTVKAASSASHASPTVQILAAASSAAA
glycan array binding signal (z-score) [1]: 0.229
glycan array binding signal (z-score) [2]: -0.584
glycan array binding signal (z-score) [3]: -0.617
glycan array binding signal (z-score) (GalNAc(b1-3)GalNAc): -0.482
glycan array binding signal (z-score) (GalNAc(b1-4)GlcNAc): 0.106
glycan array binding signal (z-score) [4]: 0.841
glycan array binding signal (z-score) (Glc(a1-4)Glc): -0.262
glycan array binding signal (z-score) (Glc(a1-6)Glc(a1-6)Glc): -0.956
glycan array binding signal (z-score) (Glc(b1-4)Glc): -0.248
glycan array binding signal (z-score) (Glc(b1-6)Glc): -0.765
glycan array binding signal (z-score) (GlcA(b1-3)Gal): 0.225
glycan array binding signal (z-score) (GlcA(b1-3)GlcNAc): -0.176
glycan array binding signal (z-score) (GlcA(b1-6)Gal): 0.829
glycan array binding signal (z-score) [5]: -0.804
glycan array binding signal (z-score) [6]: -0.156
glycan array binding signal (z-score) [7]: -0.02
glycan array binding signal (z-score) [8]: 0.47
glycan array binding signal (z-score) [9]: -0.13
glycan array binding signal (z-score) [10]: 0.282
glycan array binding signal (z-score) [11]: -0.25
glycan array binding signal (z-score) [12]: 1.8
glycan array binding signal (z-score) [13]: -0.444
glycan array binding signal (z-score) [14]: 0.324
glycan array binding signal (z-score) [15]: -0.087
glycan array binding signal (z-score) [16]: 7.79
glycan array binding signal (z-score) [17]: -0.586
glycan array binding signal (z-score) (GlcNAc(b1-3)Gal): -0.636
glycan array binding signal (z-score) [18]: 1.23
glycan array binding signal (z-score) (GlcNAc(b1-3)Gal(b1-4)Glc): -0.877
glycan array binding signal (z-score) [19]: -0.948
glycan array binding signal (z-score) [20]: -0.414
glycan array binding signal (z-score) (GlcNAc(b1-3)GalNAc): -0.565
glycan array binding signal (z-score) (GlcNAc(b1-3)Man): 0.283
glycan array binding signal (z-score) [21]: -0.7
glycan array binding signal (z-score) [22]: -0.502
glycan array binding signal (z-score) [23]: -0.348
glycan array binding signal (z-score) [24]: -0.779
